# According to the supplement of paper PMC3334620:
# Over roughly 33,000 sequences, “E-score (-0.5 to 0.5)” has its median near -0.016; the highest 2% begin near 0.3. Some of the results follow.
# Target: T1, Yer184c (UniProt P39961)
# T1 sequence: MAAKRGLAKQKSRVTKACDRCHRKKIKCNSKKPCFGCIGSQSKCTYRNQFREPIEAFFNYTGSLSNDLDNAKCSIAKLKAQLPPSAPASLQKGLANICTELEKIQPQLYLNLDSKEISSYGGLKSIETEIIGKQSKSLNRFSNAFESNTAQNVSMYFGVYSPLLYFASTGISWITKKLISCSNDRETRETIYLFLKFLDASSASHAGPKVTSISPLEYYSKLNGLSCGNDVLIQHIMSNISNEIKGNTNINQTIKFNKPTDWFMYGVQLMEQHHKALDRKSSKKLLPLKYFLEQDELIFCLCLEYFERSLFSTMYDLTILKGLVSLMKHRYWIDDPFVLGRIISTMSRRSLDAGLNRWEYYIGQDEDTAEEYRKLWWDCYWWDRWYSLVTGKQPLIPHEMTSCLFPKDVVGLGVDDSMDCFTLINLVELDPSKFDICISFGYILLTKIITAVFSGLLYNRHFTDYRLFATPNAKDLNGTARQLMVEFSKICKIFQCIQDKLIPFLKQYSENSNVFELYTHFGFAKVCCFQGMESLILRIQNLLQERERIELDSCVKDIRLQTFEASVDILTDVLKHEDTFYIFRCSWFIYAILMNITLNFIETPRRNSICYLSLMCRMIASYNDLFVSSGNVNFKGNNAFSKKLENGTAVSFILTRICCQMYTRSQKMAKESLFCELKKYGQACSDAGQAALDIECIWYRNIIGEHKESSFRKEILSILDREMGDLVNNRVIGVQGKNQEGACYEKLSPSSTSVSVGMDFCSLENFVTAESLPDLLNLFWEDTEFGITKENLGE
# Assay: PBM E-score (8-mer binding enrichment) (E-score (-0.5 to 0.5)); higher = stronger / more preferred TF binding
# Details: protein concentration: 100 nM; construct: GST-full length
# Procedure: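 Universal 'all 10-mer' protein binding microarrays (Agilent AMADID 015681) probed with GST-tagged S. cerevisiae TFs (full-length or DBD) made by in vitro transcription/translation (PURExpress), about 100-200 nM. Bound TF was detected with fluorescent anti-GST. Each ungapped 8-mer (which stands for itself and its reverse complement) is scored by the PBM enrichment score (E-score), a modified Wilcoxon-Mann-Whitney statistic from -0.5 to +0.5, computed with the Universal PBM Analysis Suite. Scale: above 0.35 generally sequence-specific binding.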
row,Sequence,PBM E-score
1,CCATCGCA,-0.234
2,GGCCTATA,-0.119
3,AGTGCGGC,0.117
4,AATTTTAG,0.0221
5,ATACGCTC,0.0288
6,CATCTGCG,-0.061
7,AGTTGAAA,0.105
8,CGTTTTGA,0.18
9,CCGACAAG,0.11
10,CCCTCTCC,-0.291
11,ATATGTGA,0.0305
12,CCAGTGGA,-0.133
13,AGATGCGA,-0.0674
14,CTCCGGGA,0.205
15,CCAAGAGA,-0.0841
16,GAGTAATA,0.284
17,ACATTACT,0.0564
18,CCATTAAC,0.0119
19,AGACTCTC,-0.138
20,TCGTGGAA,0.0999
21,AAGAAGCC,0.208
22,CGAGATTA,0.27
23,CTTCACAC,-0.147
24,AGGTTCAA,0.0797
25,ATAGTAGG,0.0295

row,Sequence,PBM E-score
1,TACCTAAA,-0.0208
2,GGGCGGAC,-0.0401
3,CTGTGCGC,-0.0421
4,GTTGAAAC,0.192
5,ATAACTGA,0.151
6,TGGCACAA,-0.061
7,GGGCTTTA,-0.244
8,CACTTGTC,-0.0593
9,ACGCTGAA,-0.0417
10,CTTATGGC,-0.0235
11,GTCCAACA,-0.0865
12,AAGACCGT,-0.163
13,TAACTCCA,-0.147
14,GCGCCTCC,-0.102
15,CTAGCCGA,0.288
16,AGTCCCGA,-0.0308
17,CTCGCTGC,-0.0365
18,AGTTAGGC,-0.0842
19,AACGTCAT,-0.0922
20,AGCATCAA,0.114
21,ACGTCCGG,0.162
22,AAGCGAGA,-0.192
23,ACCTCGGA,0.291
24,GCGGCACA,0.129
25,GACCCGGC,0.206

row,Sequence,PBM E-score
1,GGTTCGGA,0.281
2,CACGTTGA,0.0141
3,ATGAGCGA,0.131
4,AGCAAACG,0.0263
5,ATTTAACC,0.179
6,GTTTAGCA,0.0727
7,TCTACAGA,0.0591
8,ATGGGATG,-0.217
9,ACCTAAGG,-0.233
10,ATTTTCGC,0.111
11,CTGGCACA,-0.219
12,CAAATGAC,-0.0388
13,GCGTAGTA,-0.26
14,AATAGCAC,-0.276
15,GCCAGGCC,-0.0667
16,AACTCAAC,0.171
17,GTCATCAA,-0.079
18,CTCTGGAA,-0.0374
19,ACAACAAA,0.248
20,CCTCGGCA,0.367
21,ACTACTTA,0.0197
22,TCCCGGGA,0.337
23,GGCCAGAA,0.00094
24,CGCTTCGA,0.103
25,CAGACGAA,0.191

row,Sequence,PBM E-score
1,CGAGCAAA,0.16
2,AAACCGCG,0.25
3,CCGAGATA,0.275
4,CCCCTAGA,-0.34
5,AGAAATCA,0.201
6,CCACACAC,0.0377
7,AACGCGCG,0.135
8,CTCCGGAC,0.328
9,ACCGAGGC,-0.0788
10,GGTCTCGA,-0.0235
11,GACGGTCA,-0.1
12,ATGGAAAT,0.144
13,GGCAGCGA,-0.0163
14,GGGATACA,0.0377
15,AAGCACCG,-0.149
16,ATAGGGAT,-0.206
17,GCGCCTGA,-0.049
18,CACTGGAC,0.0432
19,GCGAGGAC,-0.246
20,CGACGGAA,0.171
21,GTCACAAC,0.16
22,AGTTCATA,0.0391
23,CTTGCTTC,0.0781
24,AGTGATGG,-0.0946
25,CACCTGGG,-0.237

row,Sequence,PBM E-score
1,AGCCACGA,-0.0889
2,TAGAAAAA,0.0993
3,GAACGTCC,0.078
4,AACTATGA,0.0401
5,CCATCGAC,-0.103
6,ATGGTAAC,0.00478
7,ATCGATAC,0.0137
8,AGGATAAC,-0.197
9,AGGCCATA,-0.308
10,ACTTAGTG,0.0728
11,CTACGCAA,-0.00413
12,CCTAGCAG,-0.163
13,GTTGGTTA,-0.0114
14,AGTTTACG,0.104
15,AGTCTTAT,0.0156
16,CATGCTTC,0.0497
17,CGCGGTCC,0.0964
18,AAATGAAC,0.0919
19,GACAGATA,0.06
20,GTCATTAA,0.194
21,CAGCTACG,-0.127
22,GCCACGTA,-0.318
23,GGGAAATA,0.0562
24,CTATCTGC,-0.139
25,CCCGCAGC,-0.108

# Part of the list above, tab-delimited.
row	Sequence	PBM E-score
20	AGCATCAA	0.114
21	ACGTCCGG	0.162
22	AAGCGAGA	-0.192
17	GTCATCAA	-0.079
18	CACTGGAC	0.0432
23	CTTGCTTC	0.0781
6	ATGGTAAC	0.00478

# (listing goes on)

row,Sequence,PBM E-score
1,CAACGGCA,0.0695
2,GGCAGTTA,-0.231
3,GATCGCAA,0.0463
4,GACAGCCC,-0.0787
5,CCGTAGGC,0.0871
6,ACATGCAC,-0.149
7,GGATAGTA,0.12
8,CTGATTAC,0.0851
9,GTCACCGA,0.0454
10,TATTAGCA,0.157
11,CCCAGTTA,-0.231
12,CACATGTA,-0.0674
13,ACCGCCCG,0.0393
14,CTGTATTA,0.154
15,AGTCTCAT,-0.115
16,CGTTGGTA,0.0612
17,GACTTTGA,0.0566
18,CCCAGTGA,-0.308
19,ATAATATC,0.188
20,AAGTCGGG,-0.0402
21,CTCGACAC,0.00104
22,CTATTGGA,0.045
23,CTAGGGAA,-0.0485
24,AGTGCAAC,-0.0368
25,AAACGCAA,0.127

row,Sequence,PBM E-score
1,GTGTGGTA,-0.081
2,GTGCTCGA,-0.0616
3,CGCAATAC,0.132
4,GAGCATCC,-0.111
5,GGTCGATA,-0.0139
6,CGACTCCA,-0.221
7,GAGATGAC,-0.0645
8,CCCCATCG,-0.0742
9,ATACGGCC,0.153
10,CGGACATA,0.277
11,GCCAAATA,-0.0118
12,GTGGTGCA,-0.0956
13,GCCGATCC,0.133
14,CCATCTGC,0.0155
15,AACCAGAC,-0.0727
16,GGATACTA,0.197
17,ACACAGGC,-0.139
18,GAACGTTA,-0.0507
19,AAGAGTGG,-0.256
20,GATCCCCC,-0.328
21,GGAACCAA,0.139
22,CCGTCCAG,0.122
23,TAACGCAA,0.104
24,CCGCGTAG,0.00242
25,GCTAAGCC,0.023

row,Sequence,PBM E-score
1,GATGATGC,-0.0188
2,GTGCCATA,-0.235
3,CGCAACAC,0.0186
4,GCGCAACC,-0.0711
5,CACGGTAA,0.145
6,CATTACGG,0.0073
7,GGTCTAGA,-0.137
8,GCGCATAC,-0.0925
9,CTCCCCAA,-0.209
10,AATTATTA,0.19
11,CGCTAGCC,-0.0896
12,CTCCTCAA,-0.0877
13,CCGATATA,0.122
14,GTTCCCAA,0.0489
15,ACGTCTAA,-0.0965
16,CCTTTTCG,0.155
17,ATCTAAAG,0.118
18,AGTTGCCG,0.118
19,CCGTTCAG,0.154
20,CTTAGGCC,-0.0567
21,CCAGTGCC,-0.213
22,ATTTTGCA,0.136
23,GACCGGCC,0.203
24,AGCCGTAT,0.214
25,CCGCGCAC,0.00358

# Looked up above:
# ATACGGCC | PBM E-score: 0.153
# ACTACTTA | PBM E-score: 0.0197

# The list continues:

row,Sequence,PBM E-score
1,AATCAAAA,0.211
2,CAATTAAC,0.106
3,CCCGCCGG,0.237
4,ACGTAGTC,-0.251
5,GAGGCAGA,-0.245
6,ACGCAGCC,-0.0498
7,AAATTAGT,0.237
8,AAAAGCCG,0.244
9,GACAACAA,0.08
10,AGAGATAT,-0.122
11,AGTGAAGA,-0.00891
12,GAGTGCAC,-0.0537
13,AATTTTCC,0.295
14,AGCGGAAG,0.178
15,AACATTTA,0.0843
16,AGCCATGA,-0.141
17,GGGAGCCC,-0.346
18,TAACTTCA,0.172
19,CTGTTGTA,0.0492
